From patent publication US20170096475A1 (published 2017) come the findings set out here.

By UniProt entry, the sequences of proteins in these tests, tags left out. Residues count along the entry.
UniProt P02768, residues 25-609: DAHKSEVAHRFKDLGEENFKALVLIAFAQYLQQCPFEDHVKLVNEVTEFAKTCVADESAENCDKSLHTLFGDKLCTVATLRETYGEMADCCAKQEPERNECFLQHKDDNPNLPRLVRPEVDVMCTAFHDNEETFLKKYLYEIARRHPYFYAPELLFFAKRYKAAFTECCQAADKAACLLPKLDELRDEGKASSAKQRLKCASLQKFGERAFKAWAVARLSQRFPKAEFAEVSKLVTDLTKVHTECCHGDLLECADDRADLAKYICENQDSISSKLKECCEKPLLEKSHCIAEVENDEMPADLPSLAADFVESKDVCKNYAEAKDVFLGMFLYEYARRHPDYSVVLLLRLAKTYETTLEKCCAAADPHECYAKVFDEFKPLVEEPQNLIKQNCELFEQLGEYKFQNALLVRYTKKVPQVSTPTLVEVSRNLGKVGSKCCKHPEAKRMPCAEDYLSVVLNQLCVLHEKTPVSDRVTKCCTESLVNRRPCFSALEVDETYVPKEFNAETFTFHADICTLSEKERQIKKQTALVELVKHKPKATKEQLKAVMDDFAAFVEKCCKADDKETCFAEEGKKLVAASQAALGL

Results are given in words; binding and its absence hold for the method and conditions named. Some entries that bind do so weakly or less than the wild type.

In this assay the target is human serum albumin (human) (UniProt P02768). Put plainly: phage and periprep ELISA on HSA; error-prone PCR library of hE06v1.10.

B1: SEQ ID NO 89 (VNAR)
chain: TRVDQSPSSLSASVGDRVTITCVLTDTSYPLYSTYWYRKNPGSSNKEQISISGRYSESVNKGTKSFTLTISSLQPEDFATYYCRAMGTNLWTGDGA
For B1, the binding result is given as “binds”.
